Results as given in PubChem BioAssay AID248 (DTP/NCI, 2004).
The list does not hold the whole screen: its compounds were picked by chemical class. Not every dose and run of a compound is shown. T/C gives the treated animals as a percentage of the vehicle group. Some entries give survivors of the animals treated and no T/C: the source holds a T/C of zero for them, seemingly a mark for toxic or unscored doses. Some doses without a T/C left all or most animals alive at the check, yet need not have been tolerated: survival well below the control is almost never listed, so the zero probably covers shortened survival too. Counts of survivors are from the toxicity check (mostly the fifth day) where no day follows; animals may have died later. Schedules are NCI's codes, taken here to give the interval after Q, in days (D) or hours (H), and the number of doses after X. Some schedules carry Z or #; the key to these is not given. Some entries hold several experiments; the results are listed from low to high. Brackets with × stand for listed records that agree. For survival time, the PubChem record calls one and a half times the control and up active, and a quarter to a half above the control has no call in these data; cut-offs in other NCI protocols can differ. Some T/C values carry the count of animals alive at the toxicity check (mostly the fifth day); without a count or a note in brackets, all were alive then.

Tested on: L1210 leukemia ip in BDF1 mice, survival T/C
Assay: NCI In Vivo Anticancer Drug Screen. Data for tumor model L1210 Leukemia (intraperitoneal) in B6D2F1 (BDF1) mice
Conditions: T/C endpoint: mean survival time, higher T/C = longer survival
[1] = dose: 784.0 mg/kg/injection, schedule: Q07DX Z (ip), vehicle: carboxymethylcellulose (CMC)
[2] = dose: 800.0 mg/kg/injection, schedule: Q01DX001 (ip), vehicle: saline
[3] = dose: 1000.0 mg/kg/injection, schedule: Q01DX001 (ip), vehicle: carboxymethylcellulose (CMC)

NC(=O)c1[nH]cnc1/N=N\N(CCCl)CCCl
T/C (dose: 500.0 mg/kg/injection, schedule: Q04DX Z (ip), vehicle: carboxymethylcellulose (CMC)): 104 and 180 % of control | T/C (dose: 500.0 mg/kg/injection, schedule: Q04DX Z (sc), vehicle: carboxymethylcellulose (CMC)): 295 % of control | T/C (dose: 500.0 mg/kg/injection, schedule: Q08DX002 (ip), vehicle: carboxymethylcellulose (CMC)): 253 and 521 % of control | T/C (dose: 500.0 mg/kg/injection, schedule: Q08DX003 (ip), vehicle: carboxymethylcellulose (CMC)): 465 % of control | T/C (dose: 500.0 mg/kg/injection, schedule: Q08DX Z (ip), vehicle: carboxymethylcellulose (CMC)): 94 and 290 % of control | T/C (dose: 500.0 mg/kg/injection, schedule: Q## X001 (ip), vehicle: carboxymethylcellulose (CMC)): 441 % of control | T/C (dose: 504.0 mg/kg/injection, schedule: Q03DX Z (ip), vehicle: carboxymethylcellulose (CMC)): 89 % of control | T/C (dose: 525.0 mg/kg/injection, schedule: Q01DX001 (ip), vehicle: carboxymethylcellulose (CMC)): 214 and 238 % of control | T/C (dose: 525.0 mg/kg/injection, schedule: Q07DX Z (ip), vehicle: carboxymethylcellulose (CMC)): 221 % of control [5 of 6 alive] | T/C (dose: 560.0 mg/kg/injection, schedule: Q01DX001 (ip), vehicle: steroid suspending solution): 112 % of control | T/C (dose: 567.0 mg/kg/injection, schedule: Q01DX Z (im), vehicle: carboxymethylcellulose (CMC)): 86 % of control | T/C (dose: 567.0 mg/kg/injection, schedule: Q01DX Z (oral), vehicle: carboxymethylcellulose (CMC)): 112 % of control | T/C (dose: 567.0 mg/kg/injection, schedule: Q01DX Z (sc), vehicle: carboxymethylcellulose (CMC)): 112 % of control | survivor count (dose: 600.0 mg/kg/injection, schedule: Q01DX001 (ip), vehicle: clinical formulation): 0 of 6 and 2 of 6 | survivor count (dose: 600.0 mg/kg/injection, schedule: Q01DX001 (ip), vehicle: other): 0 of 8 | T/C (dose: 600.0 mg/kg/injection, schedule: Q01DX001 (ip), vehicle: steroid suspending solution): 116 % of control | T/C (dose: 600.0 mg/kg/injection, schedule: Q01DX001 (oral), vehicle: carboxymethylcellulose (CMC)): 147 % of control | T/C (dose: 600.0 mg/kg/injection, schedule: Q04DX005 (oral), vehicle: carboxymethylcellulose (CMC)): 257 % of control | T/C (dose: 600.0 mg/kg/injection, schedule: Q04DX005 (oral), vehicle: steroid suspending solution): 104 % of control | T/C (dose: 600.0 mg/kg/injection, schedule: Q06HX012 (oral), vehicle: steroid suspending solution): 112 % of control | T/C (dose: 600.0 mg/kg/injection, schedule: Q08DX003 (oral), vehicle: carboxymethylcellulose (CMC)): 226 % of control | T/C (dose: 600.0 mg/kg/injection, schedule: Q08DX003 (oral), vehicle: steroid suspending solution): 133 % of control | T/C (dose: 625.0 mg/kg/injection, schedule: Q01DX001 (ip), vehicle: carboxymethylcellulose (CMC)): 308 % of control | T/C (dose: 691.0 mg/kg/injection, schedule: Q01DX001 (ip), vehicle: saline): 180 % of control | T/C (dose: 691.0 mg/kg/injection, schedule: Q01DX001 (ip), vehicle: steroid suspending solution): 239 % of control | T/C (dose: 691.0 mg/kg/injection, schedule: Q01DX001 (oral), vehicle: steroid suspending solution): 136 % of control [7 of 8 alive] | T/C (dose: 750.0 mg/kg/injection, schedule: Q01DX001 (ip), vehicle: carboxymethylcellulose (CMC)): 275 % of control | T/C (dose: 784.0 mg/kg/injection, schedule: Q01DX001 (ip), vehicle: carboxymethylcellulose (CMC)): 97 [5 of 6 alive], 165, 166, 249 % of control | T/C [1]: 134 % of control | survivor count [1]: 4 of 6 | T/C (dose: 800.0 mg/kg/injection, schedule: Q01DX001 (ip), vehicle: carboxymethylcellulose (CMC)): 269 % of control [7 of 8 alive] | T/C [2]: 207 % of control | survivor count [2]: 6 of 6 | T/C (dose: 800.0 mg/kg/injection, schedule: Q01DX001 (ip), vehicle: steroid suspending solution, evaluated on day 6): 236 % of control | T/C (dose: 800.0 mg/kg/injection, schedule: Q01DX001 (ip), vehicle: steroid suspending solution, evaluated on day 60): 94, 104, 236 % of control | survivor count (dose: 800.0 mg/kg/injection, schedule: Q01DX001 (ip), vehicle: steroid suspending solution): 5 of 8 (2×) and 8 of 8 | survivor count (dose: 800.0 mg/kg/injection, schedule: Q01DX001 (ip), vehicle: water): 2 of 8 | T/C (dose: 800.0 mg/kg/injection, schedule: Q01DX001 (oral), vehicle: carboxymethylcellulose (CMC)): 142 % of control | T/C (dose: 800.0 mg/kg/injection, schedule: Q04DX003 (oral), vehicle: carboxymethylcellulose (CMC)): 131 % of control | T/C (dose: 800.0 mg/kg/injection, schedule: Q04DX Z (oral), vehicle: carboxymethylcellulose (CMC)): 108 % of control | T/C (dose: 800.0 mg/kg/injection, schedule: Q08DX002 (oral), vehicle: carboxymethylcellulose (CMC)): 361 % of control | survivor count (dose: 800.0 mg/kg/injection, schedule: Q08DX003 (ip), vehicle: carboxymethylcellulose (CMC)): 10 of 10 | T/C (dose: 800.0 mg/kg/injection, schedule: Q08DX Z (oral), vehicle: carboxymethylcellulose (CMC)): 221 % of control | T/C (dose: 833.0 mg/kg/injection, schedule: Q01DX001 (ip), vehicle: carboxymethylcellulose (CMC)): 95 [7 of 8 alive] and 290 % of control | survivor count (dose: 833.0 mg/kg/injection, schedule: Q08DX002 (ip), vehicle: carboxymethylcellulose (CMC)): 8 of 8 | T/C (dose: 833.0 mg/kg/injection, schedule: Q08DX003 (ip), vehicle: carboxymethylcellulose (CMC)): 135 % of control | T/C (dose: 833.0 mg/kg/injection, schedule: Q08DX Z (ip), vehicle: carboxymethylcellulose (CMC)): 95 and 110 % of control | T/C [3]: 148 and 226 % of control | survivor count [3]: 1 of 6 | survivor count (dose: 1000.0 mg/kg/injection, schedule: Q07DX Z (ip), vehicle: carboxymethylcellulose (CMC)): 1 of 6 | T/C (dose: 1152.0 mg/kg/injection, schedule: Q01DX001 (ip), vehicle: saline): 254 % of control | T/C (dose: 1152.0 mg/kg/injection, schedule: Q01DX001 (ip), vehicle: steroid suspending solution): 388 % of control | survivor count (dose: 1152.0 mg/kg/injection, schedule: Q01DX001 (oral), vehicle: steroid suspending solution): 5 of 8 | T/C (dose: 1200.0 mg/kg/injection, schedule: Q01DX001 (oral), vehicle: carboxymethylcellulose (CMC)): 168 % of control | T/C (dose: 1200.0 mg/kg/injection, schedule: Q04DX005 (oral), vehicle: steroid suspending solution): 136 % of control | T/C (dose: 1200.0 mg/kg/injection, schedule: Q08DX003 (oral), vehicle: carboxymethylcellulose (CMC)): 189 % of control | T/C (dose: 1200.0 mg/kg/injection, schedule: Q08DX003 (oral), vehicle: steroid suspending solution): 94 % of control | T/C (dose: 1600.0 mg/kg/injection, schedule: Q01DX001 (oral), vehicle: carboxymethylcellulose (CMC)): 238 % of control | T/C (dose: 1600.0 mg/kg/injection, schedule: Q04DX003 (oral), vehicle: carboxymethylcellulose (CMC)): 108 % of control | T/C (dose: 1600.0 mg/kg/injection, schedule: Q04DX Z (oral), vehicle: carboxymethylcellulose (CMC)): 100 % of control | T/C (dose: 1600.0 mg/kg/injection, schedule: Q08DX002 (oral), vehicle: carboxymethylcellulose (CMC)): 258 % of control | T/C (dose: 1600.0 mg/kg/injection, schedule: Q08DX Z (oral), vehicle: carboxymethylcellulose (CMC)): 127 % of control
